Assay results as given in the supplement of paper PMC10398353.
Where “and” joins values, the source holds several entries; their conditions need not be identical. Equal entries are not always repeated. Structures can show the parent of a compound that is named as a salt. This is one part of the list. The data scatter; read single values as rough.

Each compound was assayed on Salmonella enterica serovar Typhimurium ST313 D23580 (assay: normalized bacterial growth (OD600 20 h minus 0 h, interquartile-mean normalized) (fraction of plate interquartile mean); higher = more bacterial growth (less inhibition)). Conditions: LPM (pH 5.8, low phosphate, low Mg2+), concentration: 10 µM, temperature: 37 °C.

Structure (SMILES)	normalized bacterial growth
CC1(C)CC[C@]2(C(=O)O)CC[C@]3(C)C(=CC[C@@H]4[C@@]5(C)CC[C@H](O)C(C)(C)[C@@H]5CC[C@]43C)[C@@H]2C1	1.17
CCCCNc1cc(C(=O)O)cc(S(N)(=O)=O)c1Oc1ccccc1 [Bumetanide]	1.07
O=c1c(O)c(-c2ccc(O)cc2)oc2ccccc12	1.1
CC(=O)Oc1ccccc1C(=O)Oc1ccccc1C(=O)O	1.16
N[C@H](C(=O)O)[C@@H]1CC(Cl)=NO1	0.964
CC(C)n1c(/C=C/C(O)CC(O)CC(=O)O)c(-c2ccc(F)cc2)c2ccccc21 (stereo unspecified) [Fluvastatin sodium salt]	0.814
CCCCCC(O)c1cccc(OCc2ccc3ccccc3n2)c1 (stereo unspecified)	1.13
COc1ccc(C[C@H](N)C(=O)N[C@H]2[C@@H](O)[C@H](n3cnc4c(N(C)C)ncnc43)O[C@@H]2CO)cc1 [Puromycin dihydrochloride]	0.972
COc1ccc(C[C@H](N)C(=O)N[C@H]2[C@@H](O)[C@H](n3cnc4c(N(C)C)ncnc43)O[C@@H]2CO)cc1	1.14 and 0.995
COc1ccccc1NC(=O)Nc1nc(-c2cccnc2)nc2ccccc12	0.557
CCCCC/C=C/CCC(=O)N[C@H]1[C@H](Oc2c3cc4cc2Oc2ccc(cc2Cl)[C@@H](O[C@@H]2O[C@H](CO)[C@@H](O)[C@H](O)[C@H]2NC(C)=O)[C@@H]2NC(=O)[C@H](NC(=O)[C@@H]4NC(=O)[C@H]4NC(=O)C(Cc5ccc(c(Cl)c5)O3)NC(=O)[C@H](N)c3ccc(O)c(c3)Oc3cc(O)cc4c3)c3ccc(O)c(c3)-c3c(OC4O[C@H](CO)[C@@H](O)[C@H](O)[C@@H]4O)cc(O)cc3[C@@H](C(=O)O)NC2=O)O[C@H](CO)[C@@H](O)[C@@H]1O (stereo partly specified) [TEICOPLANIN [A(2-1) shown]]	1.13
COCc1nc2c([nH]1)c(=O)n(C)c(=O)n2CC(C)C [8-Methoxymethyl-3-isobutyl-1-methylxanthine]	1.08
CC12CCc3occc3C1CCC13CC(=O)C(CCC12)C3 (stereo unspecified)	0.876
Cc1ccnc(NS(=O)(=O)c2ccc(N)cc2)n1	0.928
NC(=O)OCC(COC(N)=O)c1ccccc1 [Felbamate]	0.986
O=c1c(O)c(-c2ccccc2)oc2cccc(O)c12	1.15
CCCCS(=N)(=O)CCC(N)C(=O)O (racemic) ["DL-Buthionine-[S,R]-sulfoximine"]	0.96
N=C(N)NCc1cccc(I)c1 [Iobenguane sulfate]	1.22
NCCCC(O)(P(=O)(O)O)P(=O)(O)O	0.592
CNC[C@H](O)[C@@H](O)[C@H](O)[C@H](O)CO [Meglumine]	1.18
Nc1ccc(S(=O)(=O)Nc2cnc3ccccc3n2)cc1	0.878

Structure (SMILES)	normalized bacterial growth
CCCCCCCCCC[Si](C)(C)CCC(=O)NC(Cc1ccc(C)cc1)c1ccccc1 (stereo unspecified) [Sandoz 58-035]	1.12
COc1cccc(-c2cc(=O)c3cc(OC)ccc3o2)c1	0.38
O=c1[nH]c2cc(C(F)(F)F)ccc2n1-c1cc(C(F)(F)F)ccc1O	1.31
COc1cc(C2Oc3cc([C@H]4Oc5cc(O)cc(O)c5C(=O)[C@@H]4O)ccc3OC2CO)ccc1O (stereo partly specified)	1.01 and 0.782
O=c1cc(-c2ccccc2)oc2cc(O)c(O)c(O)c12	0.76
N[C@@H](CCCC(=O)O)C(=O)O [L-2-aminoadipic acid]	1.38
CN(C)CCn1nnnc1SCC1=C(C(=O)O)N2C(=O)[C@@H](NC(=O)Cc3csc(N)n3)[C@H]2SC1 [Cefotiam hydrochloride]	0.0245
CC(=O)N[C@@H](CS)C(=O)O [N-Acetyl-L-Cysteine]	1.08
O=c1cc(-c2ccccc2)[nH]c2nc(Cl)ccc12 ["7-Chloro-4-hydroxy-2-phenyl-1,8-naphthyridine"]	1.2
O=c1[nH]c(=O)c2nc3ccccc3nc2[nH]1 [Alloxazine]	0.844
N#C/C(=C\c1ccc(O)c(O)c1)C(=O)NCCc1ccccc1 [Tyrphostin AG 698]	1.13
CC(=O)O[C@H]1C[C@@]2(C)[C@@H](C[C@@H](O)[C@H]3[C@@]4(C)CC[C@@H](O)[C@@H](C)[C@@H]4CC[C@@]32C)/C1=C(\CCC=C(C)C)C(=O)O	0.555
CC(=O)O[C@H]1C[C@@]2(C)[C@@H](C[C@@H](O)[C@H]3[C@@]4(C)CC[C@@H](O)[C@@H](C)[C@@H]4CC[C@@]32C)/C1=C(\CCC=C(C)C)C(=O)O [Fusidic acid sodium]	0.535
CC(=O)O[C@H]1C[C@@]2(C)[C@@H](C[C@@H](O)[C@H]3[C@@]4(C)CC[C@@H](O)[C@@H](C)[C@@H]4CC[C@@]32C)/C1=C(\CCC=C(C)C)C(=O)O [Fusidic acid sodium salt]	0.54
CC(C)C[C@H](N)C(=O)N[C@@H](C)C(=O)O	0.946
CCOC(=O)c1c(C)cc(O)c(C=O)c1O	0.904
CCN(CC)CCOC(=O)c1ccc(N)cc1 [Procaine hydrochloride]	1.07
Cn1ccnc1 [1-Methylimidazole]	1.14
CC[C@H](C)C(=O)O[C@H]1C[C@@H](C)C=C2C=C[C@H](C)[C@H](CC[C@@H]3C[C@@H](O)CC(=O)O3)[C@H]21	0.78
Cc1c(C)c2c(c(C)c1O)CCC(C)(C(=O)O)O2 (stereo unspecified) [Trolox]	0.698

A different layout for some results above.
Structure (SMILES) | normalized bacterial growth
CC(C)n1c(/C=C/C(O)CC(O)CC(=O)O)c(-c2ccc(F)cc2)c2ccccc21 (stereo unspecified) [Fluvastatin sodium salt] | 0.814
CNC[C@H](O)[C@@H](O)[C@H](O)[C@H](O)CO [Meglumine] | 1.18
